Literature values as cited in US8791128B2, “Compositions for treating or delaying the onset of hair loss” (University of Central Florida Research Foundation, Inc., priority 2008, dated 2014).
At least one compound was matched to its structure with a doubt left.

System: hair follicles
Details: topical; animal studies; cited from earlier work

Nc1cc(N2CCCCC2)nc(N)[n+]1[O-] [minoxidil]
effect on telogen phase: shortens the telogen phase
